Source: the supplement of paper PMC4604168 (melanoma cell lines)
Some of the results follow. Many values rest on one well or one pass, so single values are uncertain.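 The apoptosis fraction was the count of cleaved-PARP antibody-stained nuclei relative to all DNA-stained nuclei, imaged in 1,536-well plates. Screening doses were set so most cells survived, and baseline and induced cleaved-PARP levels vary greatly across cell lines.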

Tested on: UACC62
Assay: cleaved PARP positive nuclei fraction relative to DMSO control; melanoma cells; higher = more apoptosis
Conditions: library dose: low library concentration; 72 h

Structure (SMILES) | cleaved PARP positive nuclei fraction
O=C(Nc1ccccc1)c1cc([N+](=O)[O-])ccc1Cl + O=S(=O)(c1ccccc1)N(CC(F)(F)F)c1ccc(C(O)(C(F)(F)F)C(F)(F)F)cc1 [T0901317] (first compound 2 µM, partner dose 1.4 µM) | 44.7%
CN(C)S(=O)(=O)c1ccc2c(c1)/C(=C/c1cc3c([nH]1)CCCC3)C(=O)N2 + NCC(=O)Nc1ccc(-n2nc(C(F)(F)F)cc2-c2ccc3c(ccc4ccccc43)c2)cc1 [OSU03012] (first compound 0.4 µM, partner dose 1 µM) | 168%
N#Cc1c(O)c2c(-c3ccc(-c4ccccc4O)cc3)csc2[nH]c1=O + O=S(=O)(c1ccccc1)N(CC(F)(F)F)c1ccc(C(O)(C(F)(F)F)C(F)(F)F)cc1 [T0901317] (first compound 2 µM, partner dose 1.4 µM) | 132%
NCC(=O)Nc1ccc(-n2nc(C(F)(F)F)cc2-c2ccc3c(ccc4ccccc43)c2)cc1 + COc1cc2c(Oc3ccc4[nH]c(C)cc4c3F)ncnc2cc1OCCCN1CCCC1 [cediranib] (first compound 1 µM, partner dose 0.4 µM) | 69.5%
CN(NC(=O)CC(=O)NN(C)C(=S)c1ccccc1)C(=S)c1ccccc1 + c1cc(-c2cnn3cc(-c4ccc(OCCN5CCCCC5)cc4)cnc23)ccn1 [Dorsomorphin] (first compound 0.006 µM, partner dose 0.4 µM) | 85%
COc1cc2c(Oc3ccc4[nH]c(C)cc4c3F)ncnc2cc1OCCCN1CCCC1 [cediranib] + c1cc(-c2cnn3cc(-c4ccc(OCCN5CCCCC5)cc4)cnc23)ccn1 [Dorsomorphin] (first compound 0.4 µM, partner dose 0.4 µM) | 83.6%
CN(NC(=O)CC(=O)NN(C)C(=S)c1ccccc1)C(=S)c1ccccc1 + N#Cc1c(O)c2c(-c3ccc(-c4ccccc4O)cc3)csc2[nH]c1=O [A769662] (first compound 0.006 µM, partner dose 2 µM) | 124%
O=C(O)c1ccc(-c2c[nH]c3ncc(-c4ccccc4)cc23)cc1C1CCCC1 + CN(NC(=O)CC(=O)NN(C)C(=S)c1ccccc1)C(=S)c1ccccc1 [STA4783] (first compound 0.16 µM, partner dose 0.006 µM) | 74%
CN(C)S(=O)(=O)c1ccc2c(c1)/C(=C/c1cc3c([nH]1)CCCC3)C(=O)N2 + CC(C)CCN1c2nc(Nc3cc(F)c(O)c(F)c3)ncc2N(C)C(=O)C1C [BID1870] (first compound 0.4 µM, partner dose 0.2 µM) | 86.3%
CN(NC(=O)CC(=O)NN(C)C(=S)c1ccccc1)C(=S)c1ccccc1 + COc1cc2c(Oc3ccc4[nH]c(C)cc4c3F)ncnc2cc1OCCCN1CCCC1 [cediranib] (first compound 0.006 µM, partner dose 0.4 µM) | 154%
COC(=O)c1sccc1S(=O)(=O)Nc1ccc(Nc2ccccc2)cc1OC + COc1ccc(-c2ccc3c(N4CCOCC4)nc(N4C[C@@H](C)O[C@@H](C)C4)nc3n2)cc1CO [KU0063794] (first compound 1 µM, partner dose 0.02 µM) | 116%
COc1ccc2c(c1)CCC1C2CCC2(C)C(NCCCCCCN3C(=O)C=CC3=O)CCC12 (stereo not drawn) + COc1cc(N2CCC(N3CCN(C)CC3)CC2)ccc1Nc1ncc(Cl)c(Nc2ccccc2S(=O)(=O)C(C)C)n1 [NVP-TAE684] (first compound 0.4 µM, partner dose 0.08 µM) | 195%
O=C(O)C(=O)Nc1sc2c(c1C(=O)O)CCNC2 + COc1cc(N2CCC(N3CCN(C)CC3)CC2)ccc1Nc1ncc(Cl)c(Nc2ccccc2S(=O)(=O)C(C)C)n1 [NVP-TAE684] (first compound 1.66667 µM, partner dose 0.08 µM) | 82.6%
CCCCCCCCCCCC1=C(O)C(=O)C=C(O)C1=O [Embelin] + O=c1cc(-c2cccc3c2Sc2ccccc2S3)oc(N2CCOCC2)c1 [KU55933] (first compound 1.2 µM, partner dose 1 µM) | 139%
COc1cc2ncnc(Nc3ccc(Oc4ccccc4)cc3)c2cc1OC + CC(C)CCN1c2nc(Nc3cc(F)c(O)c(F)c3)ncc2N(C)C(=O)C1C [BID1870] (first compound 2 µM, partner dose 0.2 µM) | 41.7%
N#Cc1c(O)c2c(-c3ccc(-c4ccccc4O)cc3)csc2[nH]c1=O + COC(=O)c1sccc1S(=O)(=O)Nc1ccc(Nc2ccccc2)cc1OC [GSK0660] (first compound 2 µM, partner dose 1 µM) | 246%
NCC(=O)Nc1ccc(-n2nc(C(F)(F)F)cc2-c2ccc3c(ccc4ccccc43)c2)cc1 + CN(NC(=O)CC(=O)NN(C)C(=S)c1ccccc1)C(=S)c1ccccc1 [STA4783] (first compound 1 µM, partner dose 0.006 µM) | 58.9%

A few values from the list.
Value for CN(C)S(=O)(=O)c1ccc2c(c1)/C(=C/c1cc3c([nH]1)CCCC3)C(=O)N2 + NCC(=O)Nc1ccc(-n2nc(C(F)(F)F)cc2-c2ccc3c(ccc4ccccc43)c2)cc1 [OSU03012] (first compound 0.4 µM, partner dose 1 µM) under cleaved PARP positive nuclei fraction: 168%
Value for NCC(=O)Nc1ccc(-n2nc(C(F)(F)F)cc2-c2ccc3c(ccc4ccccc43)c2)cc1 + COc1cc2c(Oc3ccc4[nH]c(C)cc4c3F)ncnc2cc1OCCCN1CCCC1 [cediranib] (first compound 1 µM, partner dose 0.4 µM) under cleaved PARP positive nuclei fraction: 69.5%

(continued)

Structure (SMILES) | cleaved PARP positive nuclei fraction
NCC(=O)Nc1ccc(-n2nc(C(F)(F)F)cc2-c2ccc3c(ccc4ccccc43)c2)cc1 + COc1cc(N2CCC(N3CCN(C)CC3)CC2)ccc1Nc1ncc(Cl)c(Nc2ccccc2S(=O)(=O)C(C)C)n1 [NVP-TAE684] (first compound 1 µM, partner dose 0.08 µM) | 104%
CCc1ccc(CCOc2ccc(CC3SC(=O)NC3=O)cc2)nc1 (stereo not drawn) [pioglitazone] + O=C(O)C(=O)Nc1sc2c(c1C(=O)O)CCNC2 [TCS401] (first compound 2 µM, partner dose 1.66667 µM) | 76.3%
CCN(CC)CCCCNc1ncc2cc(-c3cc(OC)cc(OC)c3)c(NC(=O)NC(C)(C)C)nc2n1 + Oc1cc(-c2nc(-c3ccccc3)[nH]c2-c2ccncc2)ccc1Cl [L779450] (first compound 0.1 µM, partner dose 0.2 µM) | 165%
O=C1NC(=O)/C(=C/c2ccc(-c3ccc(F)cc3O)o2)S1 + Cc1cc([N+](=O)[O-])ccc1NS(=O)(=O)c1cc(Cl)ccc1Cl [FH535] (first compound 1 µM, partner dose 1 µM) | 131%
c1cc(-c2cnn3cc(-c4ccc(OCCN5CCCCC5)cc4)cnc23)ccn1 [Dorsomorphin] + CCCCCCCCCCCC1=C(O)C(=O)C=C(O)C1=O [Embelin] (first compound 0.4 µM, partner dose 1.2 µM) | 76.3%
COC(=O)c1sccc1S(=O)(=O)Nc1ccc(Nc2ccccc2)cc1OC + O=C(O)C(=O)Nc1sc2c(c1C(=O)O)CCNC2 [TCS401] (first compound 1 µM, partner dose 1.66667 µM) | 74.2%
O=C(Nc1ccccc1)c1cc([N+](=O)[O-])ccc1Cl + COc1ccc(-c2ccc3c(N4CCOCC4)nc(N4C[C@@H](C)O[C@@H](C)C4)nc3n2)cc1CO [KU0063794] (first compound 2 µM, partner dose 0.02 µM) | 123%
O=C(O)c1ccc(-c2c[nH]c3ncc(-c4ccccc4)cc23)cc1C1CCCC1 + COc1cc2c(Oc3ccc4[nH]c(C)cc4c3F)ncnc2cc1OCCCN1CCCC1 [cediranib] (first compound 0.16 µM, partner dose 0.4 µM) | 205%
CN(C)S(=O)(=O)c1ccc2c(c1)/C(=C/c1cc3c([nH]1)CCCC3)C(=O)N2 + CN(NC(=O)CC(=O)NN(C)C(=S)c1ccccc1)C(=S)c1ccccc1 [STA4783] (first compound 0.4 µM, partner dose 0.006 µM) | 281%
O=C(O)c1ccc(-c2c[nH]c3ncc(-c4ccccc4)cc23)cc1C1CCCC1 + NCC(=O)Nc1ccc(-n2nc(C(F)(F)F)cc2-c2ccc3c(ccc4ccccc43)c2)cc1 [OSU03012] (first compound 0.16 µM, partner dose 1 µM) | 96.9%
CN(C)S(=O)(=O)c1ccc2c(c1)/C(=C/c1cc3c([nH]1)CCCC3)C(=O)N2 + COc1cc2c(Oc3ccc4[nH]c(C)cc4c3F)ncnc2cc1OCCCN1CCCC1 [cediranib] (first compound 0.4 µM, partner dose 0.4 µM) | 72%
COC(=O)c1sccc1S(=O)(=O)Nc1ccc(Nc2ccccc2)cc1OC + Oc1cc(-c2nc(-c3ccccc3)[nH]c2-c2ccncc2)ccc1Cl [L779450] (first compound 1 µM, partner dose 0.2 µM) | 452%
O=C1NC(=O)/C(=C/c2ccc(-c3ccc(F)cc3O)o2)S1 + CCCCCCCCCCCC1=C(O)C(=O)C=C(O)C1=O [Embelin] (first compound 1 µM, partner dose 1.2 µM) | 102%
COc1cc(N2CCC(N3CCN(C)CC3)CC2)ccc1Nc1ncc(Cl)c(Nc2ccccc2S(=O)(=O)C(C)C)n1 + CC(C)CCN1c2nc(Nc3cc(F)c(O)c(F)c3)ncc2N(C)C(=O)C1C [BID1870] (first compound 0.08 µM, partner dose 0.2 µM) | 122%
CN(C)S(=O)(=O)c1ccc2c(c1)/C(=C/c1cc3c([nH]1)CCCC3)C(=O)N2 + O=C(O)c1ccc(-c2c[nH]c3ncc(-c4ccccc4)cc23)cc1C1CCCC1 [GSK650394] (first compound 0.4 µM, partner dose 0.16 µM) | 147%
COc1cc2ncnc(Nc3ccc(Oc4ccccc4)cc3)c2cc1OC + O=C1NC(=O)/C(=C/c2ccc(-c3ccc(F)cc3O)o2)S1 [AS252424] (first compound 2 µM, partner dose 1 µM) | 54.7%
